Experimental data published in paper PMC9343455.

The chains behind the UniProt entries cited, without tags or fusion partners.
UniProt Q9ULT8: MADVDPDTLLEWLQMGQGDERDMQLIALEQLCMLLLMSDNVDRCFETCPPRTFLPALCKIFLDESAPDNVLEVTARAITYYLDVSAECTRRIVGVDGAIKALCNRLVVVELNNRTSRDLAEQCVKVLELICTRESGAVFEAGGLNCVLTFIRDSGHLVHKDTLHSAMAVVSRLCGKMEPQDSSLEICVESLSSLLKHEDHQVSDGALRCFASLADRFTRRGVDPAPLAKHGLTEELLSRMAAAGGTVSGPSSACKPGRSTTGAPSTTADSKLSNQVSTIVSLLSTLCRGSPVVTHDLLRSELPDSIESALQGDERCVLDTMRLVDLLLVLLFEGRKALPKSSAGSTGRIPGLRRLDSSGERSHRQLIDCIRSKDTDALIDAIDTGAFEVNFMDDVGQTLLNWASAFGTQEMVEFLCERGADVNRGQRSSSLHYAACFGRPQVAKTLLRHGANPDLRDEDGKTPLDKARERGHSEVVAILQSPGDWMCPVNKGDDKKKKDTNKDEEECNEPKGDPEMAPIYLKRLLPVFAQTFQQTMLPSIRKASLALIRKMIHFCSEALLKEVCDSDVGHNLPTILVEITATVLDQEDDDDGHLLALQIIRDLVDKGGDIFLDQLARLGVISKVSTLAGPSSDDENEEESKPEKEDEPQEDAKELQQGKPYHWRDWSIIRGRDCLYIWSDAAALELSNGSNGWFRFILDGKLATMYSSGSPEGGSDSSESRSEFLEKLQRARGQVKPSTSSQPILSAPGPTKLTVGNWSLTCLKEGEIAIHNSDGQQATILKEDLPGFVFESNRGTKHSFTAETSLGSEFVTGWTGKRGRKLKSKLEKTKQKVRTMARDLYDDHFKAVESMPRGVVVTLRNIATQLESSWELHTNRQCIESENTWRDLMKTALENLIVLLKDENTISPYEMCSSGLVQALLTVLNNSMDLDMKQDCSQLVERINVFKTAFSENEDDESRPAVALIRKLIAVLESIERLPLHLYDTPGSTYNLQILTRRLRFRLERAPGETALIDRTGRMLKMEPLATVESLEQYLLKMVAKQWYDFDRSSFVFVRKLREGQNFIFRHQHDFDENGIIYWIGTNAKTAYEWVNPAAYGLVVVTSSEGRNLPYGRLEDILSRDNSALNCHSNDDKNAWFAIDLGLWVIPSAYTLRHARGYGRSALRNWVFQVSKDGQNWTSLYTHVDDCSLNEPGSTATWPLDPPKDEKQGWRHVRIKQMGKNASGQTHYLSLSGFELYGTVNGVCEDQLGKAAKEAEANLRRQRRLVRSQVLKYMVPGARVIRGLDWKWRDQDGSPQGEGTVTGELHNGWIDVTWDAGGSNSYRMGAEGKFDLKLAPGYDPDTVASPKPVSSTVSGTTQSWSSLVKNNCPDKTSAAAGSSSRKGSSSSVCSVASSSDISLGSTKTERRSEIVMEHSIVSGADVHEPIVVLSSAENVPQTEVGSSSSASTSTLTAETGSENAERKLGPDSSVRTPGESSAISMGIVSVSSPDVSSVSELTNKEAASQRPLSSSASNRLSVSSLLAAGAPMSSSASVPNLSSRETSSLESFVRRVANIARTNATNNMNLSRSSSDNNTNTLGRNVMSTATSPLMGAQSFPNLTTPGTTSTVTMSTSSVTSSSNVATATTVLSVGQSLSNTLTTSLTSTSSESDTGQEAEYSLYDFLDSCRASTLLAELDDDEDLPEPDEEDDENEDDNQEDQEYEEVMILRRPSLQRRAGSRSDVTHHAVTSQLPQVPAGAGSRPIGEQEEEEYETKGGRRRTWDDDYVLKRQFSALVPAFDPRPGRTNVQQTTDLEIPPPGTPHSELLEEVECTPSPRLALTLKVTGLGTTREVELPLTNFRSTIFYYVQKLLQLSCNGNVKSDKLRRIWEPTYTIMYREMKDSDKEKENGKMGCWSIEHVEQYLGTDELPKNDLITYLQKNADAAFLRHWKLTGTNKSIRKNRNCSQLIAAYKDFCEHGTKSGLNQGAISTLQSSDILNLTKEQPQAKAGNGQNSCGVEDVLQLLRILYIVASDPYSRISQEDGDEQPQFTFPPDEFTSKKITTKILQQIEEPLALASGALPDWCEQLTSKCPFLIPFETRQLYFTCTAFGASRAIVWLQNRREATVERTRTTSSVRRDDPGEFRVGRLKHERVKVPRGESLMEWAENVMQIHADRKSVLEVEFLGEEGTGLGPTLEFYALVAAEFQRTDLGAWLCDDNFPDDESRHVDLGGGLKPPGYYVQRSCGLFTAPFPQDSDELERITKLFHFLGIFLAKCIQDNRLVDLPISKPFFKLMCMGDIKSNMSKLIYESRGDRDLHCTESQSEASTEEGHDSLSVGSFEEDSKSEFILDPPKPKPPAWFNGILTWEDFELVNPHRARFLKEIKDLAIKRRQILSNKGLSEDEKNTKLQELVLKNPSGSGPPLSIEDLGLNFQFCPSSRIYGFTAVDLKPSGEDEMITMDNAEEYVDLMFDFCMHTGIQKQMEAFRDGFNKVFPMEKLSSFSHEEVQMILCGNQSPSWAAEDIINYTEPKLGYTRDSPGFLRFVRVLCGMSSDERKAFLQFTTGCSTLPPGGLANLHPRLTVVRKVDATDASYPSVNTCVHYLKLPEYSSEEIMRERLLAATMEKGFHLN
UniProt O43684: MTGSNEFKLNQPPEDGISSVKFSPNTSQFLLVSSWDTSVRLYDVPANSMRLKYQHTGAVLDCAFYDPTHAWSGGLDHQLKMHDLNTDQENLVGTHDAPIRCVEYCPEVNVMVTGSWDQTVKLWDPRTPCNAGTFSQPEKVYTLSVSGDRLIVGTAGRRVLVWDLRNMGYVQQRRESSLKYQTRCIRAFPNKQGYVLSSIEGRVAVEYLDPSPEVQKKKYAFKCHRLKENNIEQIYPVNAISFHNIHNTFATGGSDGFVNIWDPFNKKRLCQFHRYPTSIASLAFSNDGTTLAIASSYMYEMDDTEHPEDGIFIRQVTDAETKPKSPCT

Target: HECTD1 (endogenous) (human (endogenous in HEK293T)) (UniProt Q9ULT8)
Assay: affinity purification with mass spectrometry; anti-HECTD1 antibody (Ab101992) or IgG on Dynabeads, incubated 1 h at RT with lysates of HEK293T cells synchronised in late G2 (RO3306) or released into M-phase; LC-MS/MS of gel slices

BUB3 (endogenous) (from UniProt O43684 1-328)
binding: binds

Results are given in words; binding and its absence hold for the method and conditions named. In cells and extracts the contact can be indirect. A yes stands for co-enrichment or nearness to the bait. Other partners may have been found.
